Measurements as given in PubChem BioAssay AID504834 (National Center for Advancing Translational Sciences (NCATS), 2011).
The whole screen tested about 320,000 compounds, of which about 22,000 (6.9%) were called active. The shares of active, inactive and inconclusive entries below differ from those in the screen. Calls follow the shape of the dose curve; as a rule, active = well fitted inhibition curve with a large enough effect; inconclusive = small, poorly fitted or top-dose-only effect, or another doubt; inactive = no such curve, though single readings can be large or run the other way. Potencies of inconclusive entries are doubtful fits and often do not repeat.

assay: Primary qHTS for delayed death inhibitors of the malarial parasite plastid, 96 hour incubation; settings: P. falciparum luciferase reporter growth; series mostly up to 28.7 µM
Summary of the method: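 Readout is luminescence from an integrated firefly luciferase in P. falciparum. Red cells, 2% hematocrit and 0.05% parasitemia final, were cultured with compound through two parasite generations (96 hours) at 37 C, 5% CO2.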
Potency is read from the fitted curve at half-maximal effect.

Compound	Potency
CC(C)c1ccc(NC(=O)CSc2nc(=O)n(CCCN3CCOCC3)c3c2CCCC3)cc1	inconclusive: 18.5 µM [inhibitor, single point]
COc1cc(CNC2CCCCCCC2)c(Br)cc1OCCO	inconclusive: 3.7 µM [inhibitor, single point]
O=C(c1cn[nH]c1)N1CCc2c([nH]c3ccccc23)C1c1c(F)cccc1Cl (stereo not given)	inconclusive: 10.4 µM [inhibitor, single point]
COc1ccc(N=Cc2nc(-c3ccccc3)oc2OC(=O)c2ccccc2)cc1	inactive
O=C(NCc1ccc(F)cc1)c1cccc(S(=O)(=O)N2CCCC2)c1	inconclusive: 5.86 µM [inhibitor, partial curve, poor fit]
CCOc1ccc(C(=O)Nc2cccc(-c3cc4ccccc4oc3=O)c2)cc1[N+](=O)[O-]	inconclusive: 0.233 µM [inhibitor, full curve, poor fit]
Nc1nnc(-c2ccc(Cl)c([N+](=O)[O-])c2)s1	inactive
CCN(CC)CCNC(=O)CCCCn1c(=S)[nH]c2c([nH]c3ccc(OC)cc32)c1=O	inconclusive: 7.38 µM [inhibitor, partial curve, poor fit]
Cc1ccc2cc(CN(C(=O)C3CCCO3)C3CCCCC3)c(=O)[nH]c2c1 (stereo not given)	inconclusive: 11.7 µM [inhibitor, single point]
COc1cc2c(cc1OC)[C@@H](Cc1ccc(OCCC#N)cc1)N(C)CC2	inconclusive: 18.5 µM [inhibitor, single point]
COc1ccc(NC(=O)CN2CCN(CC(=O)Nc3ccccc3OC)CC2)c(OC)c1	inactive
CC(C)OC(=O)C1C(=O)CC(C)(O)C(C(=O)OC(C)C)C1c1ccc(F)cc1 (stereo not given)	inconclusive: 6.57 µM [inhibitor, partial curve]
CCOP(=O)(c1ccc(N(C)C)cc1)C(O)c1c(Cl)cccc1Cl (stereo not given)	inconclusive: 11.7 µM [inhibitor, partial curve]
CC(/C=C/c1ccco1)=N\NC(=O)c1cccc(Cl)c1	inconclusive: 11.7 µM [inhibitor, single point]
CCn1c2ccccc2c2nc3cc(S(=O)(=O)N4CCOCC4)ccc3nc21	inactive
Nc1nonc1-n1nnc(C(=O)N/N=C/c2cccc(Cl)c2)c1-c1cccs1	active: 2.33 µM
CC(C)NS(=O)(=O)c1ccc(CCC(=O)N2CCc3ccccc3C2)cc1	inconclusive: 18.5 µM [inhibitor, single point]
CSc1ccccc1C(=O)Nc1ccc2c(c1)OCCO2	inconclusive: 2.94 µM [inhibitor, partial curve, poor fit]
COc1ccc(NC2=CC(=O)CC(C)(C)C2)cc1OC	inconclusive: 18.5 µM [inhibitor, single point]
Cc1ccc(C2=CSC3=NNC4(CCCCC4)NN23)cc1	inactive
CC1(C)CC2CC(C)(CN2C(=O)COC(=O)c2ccccc2C(F)(F)F)C1 (stereo not given)	inconclusive: 11.7 µM [inhibitor, partial curve, poor fit]
COc1ccc(C2NCCc3sccc32)cc1 (stereo not given)	inactive
COc1ccc(CCNC(=O)CSc2nn3c(=O)c(C)nnc3s2)cc1OC	active: 0.208 µM

An excerpt from above in order of SMILES length, smallest number first:
Compound	Potency
Nc1nnc(-c2ccc(Cl)c([N+](=O)[O-])c2)s1	inactive
CC(C)c1ccc(NC(=O)CSc2nc(=O)n(CCCN3CCOCC3)c3c2CCCC3)cc1	inconclusive: 18.5 µM [inhibitor, single point]
CCOc1ccc(C(=O)Nc2cccc(-c3cc4ccccc4oc3=O)c2)cc1[N+](=O)[O-]	inconclusive: 0.233 µM [inhibitor, full curve, poor fit]

Carrying on.

Compound	Potency
Cc1cc(C)c2[nH]c(=O)c(CN(Cc3ccco3)C(=O)c3cccs3)cc2c1	inconclusive: 18.5 µM [inhibitor, single point]
Cc1ccc2nc(-c3ccc(NC(=O)Cc4cccs4)cc3)[nH]c2c1	active: 4.15 µM
Cn1c(=O)[nH]c(=O)c2c1nc(N/N=C/C(Br)=C/c1ccccc1)n2CCO	inconclusive: 11.7 µM [inhibitor, single point]
CC(C)c1ccc(NC(=O)c2ccccc2NC(=O)C2CC=CCC2C(=O)O)cc1 (stereo not given)	inactive
CC1(C)CC(=O)C(C(c2ccc(Br)cc2)C2C(=O)CC(C)(C)CC2=O)C(=O)C1	inconclusive: 14.7 µM [inhibitor, single point]
O=C(Nc1ncccc1O)c1cccc(S(=O)(=O)N2CCc3ccccc32)c1	inconclusive: 11.7 µM [inhibitor, single point]
COc1ccc(C2SCC(=O)Nc3c2c(C)nn3C2CCOC(C)(C)C2)cc1 (stereo not given)	inactive
C/C(=N\NC(=O)C12CCC(C)(C(=O)O1)C2(C)C)c1ccccc1O (stereo not given)	inconclusive: 0.522 µM [inhibitor, partial curve, poor fit]
O=C(N/N=C/c1cccs1)c1cc(C2CC2)nc2ccccc12	inactive
O=C(N/N=C/c1cccs1)c1cncc(Br)c1	inactive
CC(Nc1cc(C)cc(C)c1)=[N+](C)CCNS(=O)(=O)c1ccc(Cl)cc1	inactive
Cc1nc2ccc(Br)cn2c1C(=O)N/N=C\c1ccccc1[N+](=O)[O-]	inconclusive: 10.4 µM [inhibitor, single point]
CCCc1ccc(OCC(O)CN2CCN(C(=O)OCC)CC2)cc1 (stereo not given)	inactive
CCOc1ccccc1NS(=O)(=O)c1cn(C)nc1C	inactive
CN1CCc2nc(NC(=O)c3cccc(S(=O)(=O)N4CCc5ccccc54)c3)sc2C1	inactive
COC(=O)/C(=C\c1cccnc1)NC(=O)c1ccc(OCc2ccccc2)cc1	inconclusive: 18.5 µM [inhibitor, single point]
Cc1cc(C)nc(Nc2nc3ccccc3s2)n1	active: 1.65 µM
CN(C[C@H](Cc1ccccc1)N(C[C@@H](CC1CCCCC1)N(CCc1ccccc1)N=O)N=O)N=O	inconclusive: 1.17 µM [inhibitor, partial curve, poor fit]
Cc1cc(=O)n2c3ccccc3n(CC(O)CN3CCC(C)CC3)c2c1C#N (stereo not given)	inconclusive: 18.5 µM [inhibitor, single point]
Cc1ccc(NC(=O)COc2ccccc2C(=O)Nc2ccccc2)cc1Cl	inactive
CCOc1ccc(-c2nnn(CC(=O)Nc3cc(OC)cc(OC)c3)n2)cc1OCC	inconclusive: 10.4 µM [inhibitor, single point]
CCc1ccc(NC(=O)Cn2cc([N+](=O)[O-])nc2C)cc1	inconclusive: 13.1 µM [inhibitor, partial curve]
